Positions count from the first letter of the chain named. Names and notes keep the numbering of the source. No constants are given. Whether binding was seen depends on the method and setting. Some results given as binding are weak or reduced against the parent protein; the word gives no strength.

In test [1] the target is GDAP1∆303-358 Y29F (human) (UniProt Q8TB36). In words: SEC; Superdex 200 or Superdex 75 10/300 GL increase; 25 mM HEPES pH 7.5, 300 mM NaCl; two concentrations of each construct; mutants at 5 mg/ml; both purified.
Test [2] has as its target GDAP1∆303-358 Y29E/C88A (human) (UniProt Q8TB36). Nature of the test: SEC-SAXS; 50 µL of protein at 8.5-10 mg/ml injected into BioSEC3-300 or Superdex 75 10/300 GL increase; 25 mM HEPES pH 7.5, 300 mM NaCl; +15 °C; GDAP1∆295-358 and GDAP1∆319-358 also with hexadecanedioic acid (HA), which gave a higher monomer fraction; both purified.
Test [3] addresses full-length GDAP1L1 (UniProt Q96MZ0). Nature of the test: non-reducing SDS-PAGE; SEC eluates of purified proteins on a non-reducing gel (GDAP1L1 also on a reducing gel); shows the covalent (disulfide) dimer; both purified.
Test [4] has the same target. In words: SEC-SAXS; 50 µL of protein at 8.5-10 mg/ml injected into BioSEC3-300 or Superdex 75 10/300 GL increase; 25 mM HEPES pH 7.5, 300 mM NaCl; +15 °C; GDAP1∆295-358 and GDAP1∆319-358 also with hexadecanedioic acid (HA), which gave a higher monomer fraction; both purified.

B1: GDAP1∆303-358 Y29F (domain or fragment, human, UniProt Q8TB36 1-302, looked up)
chain: MAERQEEQRGSPPLRAEGKADAEVKLILFHWTHSFSSQKVRLVIAEKALKCEEHDVSLPLSEHNEPWFMRLNSTGEVPVLIHGENIICEATQIIDYLEQTFLDERTPRLMPDKESMYYPRVQHYRELLDSLPMDAYTHGCILHPELTVDSMIPAYATTRIRSQIGNTESELKKLAEENPDLQEAYIAKQKRLKSKLLDHDNVKYLKKILDELEKVLDQVETELQRRNEETPEEGQQPWLCGESFTLADVSLAVTLHRLKFLGFARRNWGNGKRPNLETYYERVLKRKTFNKVLGHVNNILIS
notes: Point mutant of m2, made by site-directed mutagenesis PCR; source: E. coli BL21 (DE3), purified (Ni-NTA, TEV cleavage, SEC); not shown: His6, N-terminal, cleaved
B1: the binding result in test [1] is “binds weakly”.

B2: GDAP1∆303-358 Y29E/C88A (domain or fragment, UniProt Q8TB36 1-302)
chain: B1 chain with F29E, C88A
Turning to B2, the binding result in test [2] is “no binding”.

B3: full-length GDAP1L1 (protein, UniProt Q96MZ0 1-367)
chain: MATPNNLTPTNCSWWPISALESDAAKPAEAPDAPEAASPAHWPRESLVLYHWTQSFSSQKVRLVIAEKGLVCEERDVSLPQSEHKEPWFMRLNLGEEVPVIIHRDNIISDYDQIIDYVERTFTGEHVVALMPEVGSLQHARVLQYRELLDALPMDAYTHGCILHPELTTDSMIPKYATAEIRRHLANATTDLMKLDHEEEPQLSEPYLSKQKKLMAKILEHDDVSYLKKILGELAMVLDQIEAELEKRKLENEGQKCELWLCGCAFTLADVLLGATLHRLKFLGLSKKYWEDGSRPNLQSFFERVQRRFAFRKVLGDIHTTLLSAVIPNAFRLVKRKPPSFFGASFLMGSLGGMGYFAYWYLKKKYI
For B3, the binding entry with full-length GDAP1L1 [3] and in the test with full-length GDAP1L1 [4] was “no binding” each time.

These data come from publication PMC7873046, “Structure of the Complete Dimeric Human GDAP1 Core Domain Provides Insights into Ligand Binding and Clustering of Disease Mutations” (Frontiers in Molecular Biosciences, 2021).
